Experimental findings from PubChem BioAssay AID588345 (Broad Institute, 2011) are described below.

SMILES strings stand for the structures. The campaign covered roughly 1,300 compounds. About 850 (65%) were called active. Roughly 1% stayed inconclusive and do not appear here. No rule for the calls is given here. The set was probably picked from earlier hits. Only a part is listed here, and it is no random draw. Measured potencies and affinities stand elsewhere.

The target in the assay is Dual specificity tyrosine-phosphorylation-regulated kinase 1A (Rattus norvegicus) (UniProt Q63470). Briefly: Dyrk1A enzyme activity inhibition – biochemical, cherry-pick, plate reader, 2124-01, dose response (AID 588345). As to conditions: Dyrk1A kinase biochemical assay; at 12 µM (top of the series).
Consider `COc1cc2ccc(=O)oc2c2ccoc12`, for which the activity change, negative = inhibition was inactive: 3.75%.

On to `NC(=O)c1c(Br)n(C2OC(CO)C(O)C2O)c2ncnc(N)c12` (stereo not given), for which the activity change, negative = inhibition was inactive: -34.2%.

In the case of `Cc1cccc(-n2c(O)c(/C=C3/C(c4ccccc4)=Nc4ccccc43)c(=O)[nH]c2=O)c1`, the activity change, negative = inhibition was inactive: 16.9%.

Take `COC(=O)C1=C(c2ccc(F)cc2OCc2ccccc2)C[C@@H]2CC[C@H]1N2C(=O)NC1CC1`: the activity change, negative = inhibition was inactive: -6.58%.

In the case of `COC(=O)C1=C(c2ccc(Cl)c(C(F)(F)F)c2)C[C@@H]2CC[C@H]1N2C(=O)NCCOc1ccc(OC)cc1`, the activity change, negative = inhibition was inactive: -9.24%.

Consider `NC(=O)c1cn(C2OC(CO)C(O)C2O)c2ncnc(N)c12` (stereo not given), for which the activity change, negative = inhibition is inactive: 4.89%.

As to `Cc1nccc2c1[nH]c1ccccc12`, the activity change, negative = inhibition is inactive: 6.39%.

For `COC(=O)C1=C(c2ccc(F)cc2OCc2ccccc2)C[C@@H]2CC[C@H]1N2C(=O)NCc1ccccc1`, the activity change, negative = inhibition was inactive: -6.04%.

On to `Clc1ccc2c(c1)C(c1ccccc1Cl)=NCc1nnc(N3CCN(CCSc4ccccc4)CC3)n1-2`, for which the activity change, negative = inhibition was inactive: 10.3%.

Consider `N#C/C(=C\c1ccc(O)cc1)C(=O)O`, for which the activity change, negative = inhibition was inactive: -4.64%.
